Measurements taken from patent publication US20230092389A1, “UNIT DOSES, AEROSOLS, KITS, AND METHODS FOR TREATING HEART CONDITIONS BY PULMONARY ADMINISTRATION” (InCarda Therapeutics, Inc., priority 2017, published 2023).

Test system: healthy male volunteers
Assay: Taste and aftertaste of nebulized liquid aerosol (Aeroneb GO)
Parameters: species or system human
Conditions: for Aftertaste: 5 minutes after the inhalation maneuver; for Taste: about 40 μl of test solution inhaled as aerosol, 2 volunteers

Structure (SMILES) | Aftertaste | Taste
COc1ccc([C@@H]2Sc3ccccc3N(CCN(C)C)C(=O)[C@@H]2OC(C)=O)cc1 [diltiazem] | none to little aftertaste | Mildly bitter taste felt in the back of the tongue
O=C(NCC1CCCCN1)c1cc(OCC(F)(F)F)ccc1OCC(F)(F)F (stereo not shown) [flecainide] | none to little aftertaste | Mildly bitter taste felt in the back of the tongue
